Results are given in words; binding and its absence hold for the method and conditions named. Some binding calls cover weakened binding; strength is not graded here. One block for each binder: values may come before it.
How the values were obtained:
[1] = target: CD36 (CRISPRa-induced on K562 cells) (human (endogenous in K562)) (UniProt P16671); assay: CRISPRa enrichment screen (magnetic bead selection of cells, deep sequencing of sgRNAs); biotinylated ligand (1 µM) on streptavidin microbeads with K562 sunCas9 cells carrying pooled sgRNA libraries (mini-library, TM1 or TM2+); 4°C, 30 min, MACS buffer; up to three rounds of MACS positive selection; hits called with casTLE and ESP score; only the binder purified
full-length CD36 (human) = full-length CD36 (human) (UniProt P16671); assay: flow cytometry on cells; ligand tetramerised on streptavidin-Alexa647 (400 nM) on 293F cells transfected with full-length CD36 against control cells; 1 hr, 4°C, MACS buffer; only the binder purified
[2] = target: FLAG-tagged full-length PTPRA (human) (UniProt P18433); assay: flow cytometry on cells; ligand tetramerised on streptavidin-Alexa647 (4:1), titrated 1:1 from 200 or 400 nM tetramer, on K562 cells lentivirally transduced with FLAG-tagged full-length receptor against untransduced K562; 4°C, MACS buffer; only the binder purified
[3] = target: PTPRA (CRISPRa-induced on K562 cells) (human (endogenous in K562)) (UniProt P18433); assay: CRISPRa enrichment screen (magnetic bead selection of cells, deep sequencing of sgRNAs); biotinylated ligand (1 µM) on streptavidin microbeads with K562 sunCas9 cells carrying pooled sgRNA libraries (mini-library, TM1 or TM2+); 4°C, 30 min, MACS buffer; up to three rounds of MACS positive selection; hits called with casTLE and ESP score; only the binder purified
human PTPRU-ECD (human) = target: T1, human PTPRU-ECD (human) (UniProt Q92729); assay: SPR; Biacore T100; biotinylated receptor ECD or hit protein captured on a streptavidin chip (~100-200 RU), non-biotinylated secreted ligand as analyte in twofold dilutions; HBS-P+ buffer; 1:1 Langmuir model or equilibrium fit; both purified
T1 sequence (chain, biotin where captured on the streptavidin chip): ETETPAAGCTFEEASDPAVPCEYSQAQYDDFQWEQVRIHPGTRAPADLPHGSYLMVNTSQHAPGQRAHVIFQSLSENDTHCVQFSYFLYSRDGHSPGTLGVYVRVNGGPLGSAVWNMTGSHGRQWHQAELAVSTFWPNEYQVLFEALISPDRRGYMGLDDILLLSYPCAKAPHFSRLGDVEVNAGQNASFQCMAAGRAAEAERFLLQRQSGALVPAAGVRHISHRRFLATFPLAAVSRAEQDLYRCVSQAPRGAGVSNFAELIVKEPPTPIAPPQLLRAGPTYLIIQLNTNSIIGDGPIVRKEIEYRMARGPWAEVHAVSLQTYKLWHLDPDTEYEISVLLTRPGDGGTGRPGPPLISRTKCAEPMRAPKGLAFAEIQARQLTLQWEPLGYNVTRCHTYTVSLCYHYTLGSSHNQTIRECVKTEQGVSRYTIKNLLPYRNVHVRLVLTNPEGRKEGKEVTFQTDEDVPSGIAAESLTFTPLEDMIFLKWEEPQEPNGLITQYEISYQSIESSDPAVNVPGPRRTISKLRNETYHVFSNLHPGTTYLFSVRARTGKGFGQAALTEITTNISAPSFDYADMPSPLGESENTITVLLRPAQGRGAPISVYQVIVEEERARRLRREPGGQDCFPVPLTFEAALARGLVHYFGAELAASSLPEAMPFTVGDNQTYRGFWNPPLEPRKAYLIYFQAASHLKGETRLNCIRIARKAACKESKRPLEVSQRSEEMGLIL

Protein sequences, listed by entry. Tags and fused reporters are not part of them. Residues count along the entry.
UniProt P16671: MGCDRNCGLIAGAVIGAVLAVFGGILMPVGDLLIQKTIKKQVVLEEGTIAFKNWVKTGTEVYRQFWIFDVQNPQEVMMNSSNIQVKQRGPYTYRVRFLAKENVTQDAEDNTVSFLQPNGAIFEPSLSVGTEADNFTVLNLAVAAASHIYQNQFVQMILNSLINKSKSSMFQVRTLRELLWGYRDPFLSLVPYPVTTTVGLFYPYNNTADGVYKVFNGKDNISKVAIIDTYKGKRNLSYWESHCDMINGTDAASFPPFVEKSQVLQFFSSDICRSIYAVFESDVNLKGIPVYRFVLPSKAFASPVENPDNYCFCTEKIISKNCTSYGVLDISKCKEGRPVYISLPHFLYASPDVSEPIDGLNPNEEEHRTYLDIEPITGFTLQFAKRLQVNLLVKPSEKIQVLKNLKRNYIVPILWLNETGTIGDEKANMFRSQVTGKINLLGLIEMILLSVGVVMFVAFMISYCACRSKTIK
UniProt P18433, residues 20-802: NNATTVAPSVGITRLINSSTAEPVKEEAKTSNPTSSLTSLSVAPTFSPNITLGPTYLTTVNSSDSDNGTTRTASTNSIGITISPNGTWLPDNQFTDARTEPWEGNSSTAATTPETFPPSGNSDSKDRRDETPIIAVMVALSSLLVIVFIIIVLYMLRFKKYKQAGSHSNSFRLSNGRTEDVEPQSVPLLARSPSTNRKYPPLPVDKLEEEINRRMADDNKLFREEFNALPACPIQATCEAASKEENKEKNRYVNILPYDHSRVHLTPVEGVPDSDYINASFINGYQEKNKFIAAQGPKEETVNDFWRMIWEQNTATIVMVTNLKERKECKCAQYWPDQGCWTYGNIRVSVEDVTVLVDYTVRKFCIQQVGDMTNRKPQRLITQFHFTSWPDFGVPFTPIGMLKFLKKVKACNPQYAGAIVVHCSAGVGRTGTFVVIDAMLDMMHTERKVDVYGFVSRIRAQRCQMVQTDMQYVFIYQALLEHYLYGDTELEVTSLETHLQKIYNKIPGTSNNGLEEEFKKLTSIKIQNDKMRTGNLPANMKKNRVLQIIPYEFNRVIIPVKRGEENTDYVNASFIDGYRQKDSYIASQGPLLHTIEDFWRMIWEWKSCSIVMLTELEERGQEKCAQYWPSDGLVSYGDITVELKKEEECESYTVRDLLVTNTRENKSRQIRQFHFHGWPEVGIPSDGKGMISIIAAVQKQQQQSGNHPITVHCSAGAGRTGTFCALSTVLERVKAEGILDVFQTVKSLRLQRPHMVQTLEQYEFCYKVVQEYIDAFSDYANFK

PTPRJ ECD (human) = target: T2, PTPRJ ECD (human) (UniProt Q12913); assay: as above
T2 sequence (chain, biotin where captured on the streptavidin chip): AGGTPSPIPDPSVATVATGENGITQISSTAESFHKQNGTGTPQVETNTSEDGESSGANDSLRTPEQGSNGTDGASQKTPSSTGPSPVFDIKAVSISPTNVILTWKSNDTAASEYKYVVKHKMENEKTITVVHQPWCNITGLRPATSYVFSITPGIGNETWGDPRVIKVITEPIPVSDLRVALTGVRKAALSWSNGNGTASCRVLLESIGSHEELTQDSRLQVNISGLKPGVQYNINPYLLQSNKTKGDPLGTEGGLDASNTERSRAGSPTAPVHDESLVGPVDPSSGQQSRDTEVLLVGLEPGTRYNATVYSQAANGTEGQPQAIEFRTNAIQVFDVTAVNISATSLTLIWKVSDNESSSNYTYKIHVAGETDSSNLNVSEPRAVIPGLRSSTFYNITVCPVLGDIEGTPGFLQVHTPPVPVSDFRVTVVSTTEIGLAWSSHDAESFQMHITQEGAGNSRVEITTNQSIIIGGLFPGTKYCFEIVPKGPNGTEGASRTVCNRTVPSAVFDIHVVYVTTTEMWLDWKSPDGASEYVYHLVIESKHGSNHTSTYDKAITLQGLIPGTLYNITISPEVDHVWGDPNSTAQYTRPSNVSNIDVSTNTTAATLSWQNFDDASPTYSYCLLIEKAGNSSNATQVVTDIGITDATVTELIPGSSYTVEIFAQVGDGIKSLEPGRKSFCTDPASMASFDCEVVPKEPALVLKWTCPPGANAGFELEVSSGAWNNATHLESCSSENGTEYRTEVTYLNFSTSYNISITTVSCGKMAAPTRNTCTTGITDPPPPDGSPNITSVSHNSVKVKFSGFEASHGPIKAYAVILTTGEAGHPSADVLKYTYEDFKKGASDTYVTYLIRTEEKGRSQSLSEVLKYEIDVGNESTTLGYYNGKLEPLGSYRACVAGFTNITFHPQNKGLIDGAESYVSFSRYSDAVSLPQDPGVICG

B1: LY6H (ligand, UniProt O94772 26-115)
chain: LWCQDCTLTTNSSHCTPKQCQPSDTVCASVRITDPSSSRKDHSVNKMCASSCDFVKRHFFSDYLMGFINSGILKVDVDCCEKDLCNGAAG
modifications: biotin (biotinylated in vitro with BirA)
- binding [1]: binds
- binding (full-length CD36 (human)): binds

B2: NRN1 (ligand, UniProt Q9NPD7 28-116)
chain: AGKCDAVFKGFSDCLLKLGDSMANYPQGLDDKTNIKTVCTYWEDFHSCTVTALTDCQEGAKDMWDKLRKESKNLNIQGSLFELCGSGNG
modifications: biotin (biotinylated in vitro with BirA)
- binding [1]: binds
- binding (full-length CD36 (human)): binds

B6: SCRG1 (ligand, UniProt O75711 21-98)
chain: MPANRLSCYRKILKDHNCHNLPEGVADLTQIDVNVQDHFWDGKGCEMICYCNFSELLCCPKDVFFGPKISFVIPCNNQ
modifications: biotin (biotinylated in vitro with BirA)
- binding [1]: binds
- binding (full-length CD36 (human)): binds

Other lines, results leading:

- binding [1]: binds
- binding (full-length CD36 (human)): binds
B3: VWC2L (ligand, UniProt B2RUY7 22-222)
chain: AAISHEDYPADEGDQISSNDNLIFDDYRGKGCVDDSGFVYKLGERFFPGHSNCPCVCALDGPVCDQPECPKIHPKCTKVEHNGCCPECKEVKNFCEYHGKNYKILEEFKPSPCEWCRCEPSNEVHCVVADCAVPECVNPVYEPEQCCPVCKNGPNCFAGTTIIPAGIEVKVDECNICHCHNGDWWKPAQCSKRECQGKQTV
modifications: biotin (biotinylated in vitro with BirA)

- binding [2]: binds
- binding [3]: binds
- binding (human PTPRU-ECD (human)): no binding
- binding (PTPRJ ECD (human)): no binding
B4: growth arrest specific 1 protein (ligand, UniProt P54826 40-317)
chain: LAHGRRLICWQALLQCQGEPECSYAYNQYAEACAPVLAQHGGGDAPGAAAAAFPASAASFSSRWRCPSHCISALIQLNHTRRGPALEDCDCAQDENCKSTKRAIEPCLPRTSGGGAGGPGAGGVMGCTEARRRCDRDSRCNLALSRYLTYCGKVFNGLRCTDECRTVIEDMLAMPKAALLNDCVCDGLERPICESVKENMARLCFGAELGNGPGSSGSDGGLDDYYDEDYDDEQRTGGAGGEQPLDDDDGVPHPPRPGSGAAASGGRGDLPYGPGRRS
modifications: biotin (biotinylated in vitro with BirA) where used on beads or as tetramer

- binding [1]: no binding
- binding (full-length CD36 (human)): no binding (tested: 400 nM tetramer)
B5: SPRC (ligand, UniProt P09486 18-303)
chain: APQQEALPDETEVVEETVAEVTEVSVGANPVQVEVGEFDDGAEETEEEVVAENPCQNHHCKHGKVCELDENNTPMCVCQDPTSCPAPIGEFEKVCSNDNKTFDSSCHFFATKCTLEGTKKGHKLHLDYIGPCKYIPPCLDSELTEFPLRMRDWLKNVLVTLYERDEDNNLLTEKQKLRVKKIHENEKRLEAGDHPVELLARDFEKNYNMYIFPVHWQFGQLDQHPIDGYLSHTELAPLRAPLIPMEHCTTRFFETCDLDNDKYIALDEWAGCFGIKQKDIDKDLVI
modifications: biotin (biotinylated in vitro with BirA)

From publication PMC9578707
